The record followed here is patent US7399319B2, “Dyeing composition comprising a dye chosen from styryl and imine dyes and methods for dyeing keratin fibers” (L'Oreal S.A., priority 2005, dated 2008).

Data set [1] in a line: Dyeing of hair locks, colour measured in the CIE L*a*b* system. Particulars: natural lock, 5 g per 1 g of hair, room temperature, 30 minutes; for DEa*b*: dye 3 × 10^−3 mol %, dyed vs non-dyed lock.
Assay in data set [2]: as above
Particulars: permanent-waved lock, 5 g per 1 g of hair, room temperature, 30 minutes; for DEa*b*: dye 3 × 10^−3 mol %, dyed vs non-dyed lock.

As for `CN(C)c1ccc(C=CC23OCCN2c2ccc(-c4cccc[n+]4C)cc2C3(C)C)cc1` (stereo not shown), the Color result in data set [1] and in data set [2] was “chromatic violet” throughout.

In the case of `CN(C)c1ccc(C=CC23OCCN2c2ccccc2C3(C)C)cc1` (stereo not shown) [Dye 1], the Color entry in data set [1] and in data set [2] was “fuchsia” each time. Further, the “DEa*b*” value in data set [1] and in data set [2] was 57 in each case.

For the molecule `CN(C)c1ccc(C=CC=CC23OCCN2c2ccccc2C3(C)C)cc1` (stereo not shown) [Dye 2], the Color entry in data set [1] and in data set [2] was “blue” throughout. For the same molecule, the “DEa*b*” value in data set [1] is reported as 54; in data set [2], 57.

For `CN(C)c1ccc(C=CC23OCCN2c2ccc(S(C)(=O)=O)cc2C3(C)C)cc1` (stereo not shown) [Dye 3], the Color result in data set [1] and in data set [2] was “violet” in each case. The figures for the “DEa*b*” value in data set [1] and in data set [2] were 65 and 71, respectively.

`CCn1c2ccccc2c2cc(C=CC34OCCN3c3ccccc3C4(C)C)ccc21` (stereo not shown) [Dye 5]: the Color entry in data set [1] and in data set [2] was “red” each time. The “DEa*b*” value stood at 42 in data set [1] and 43 in data set [2].

Turning to `CC(=O)Nc1ccc(C=CC23OCCN2c2ccccc2C3(C)C)cc1` (stereo not shown) [Dye 6], the Color result in data set [1] and in data set [2] was “yellow” throughout. Besides, the “DEa*b*” value is listed as 42 in data set [1] and 47 in data set [2].
